# Experimental data as given in PubChem BioAssay AID540276 (National Center for Advancing Translational Sciences (NCATS), 2011).
# Screen size: about 300,000 compounds; about 5,400 (1.8%) were called active. Inconclusive means that the source gave no clear call. Such entries were picked first, then a sample of the others. Calls come from the whole dose curve; tested in HEK293 cells. A potency beside an inconclusive call is a rough fit, not a confirmed value.
# Test: qHTS for inhibitors of binding or entry into cells for Marburg Virus
# Conditions: Marburg virus pseudotyped entry inhibition, cell reporter; activity change, negative = inhibition: at 37.8 µM (top of the series) unless noted
# % is set by controls: 0 for no effect and ±100 for the full control effect; potency is the fitted concentration of half-maximal effect.
Structure (SMILES),Potency,"activity change, negative = inhibition"
CCCSc1ccc(C(=O)Nc2ccc(F)cc2F)cn1,"inconclusive: 11.2 µM [activator, partial curve, poor fit]",
Cc1cccc(C(=O)N(Cc2nc3ccccc3c(=O)[nH]2)C2CCCC2)c1,"inconclusive: 25.1 µM [inhibitor, partial curve, poor fit]",
COc1cc2c(cc1NC(=O)CC1SC(N3CCCC3)=NC1=O)oc1ccccc12 (centres undefined),"inconclusive: 22.4 µM [inhibitor, single point]",
CC(=O)Nc1ccc(NC(=O)C(C)OC(=O)CCCc2c[nH]c3ccccc23)cc1 (centres undefined),"inconclusive: 15.8 µM [activator, single point]",
CN(c1ccc(C(=O)NCCSCc2ccco2)cc1)S(C)(=O)=O,,inactive: 2.57%
CC(Cl)C(=O)c1ccc2c(c1)CCN2C(=O)C1CC1 (centres undefined),"inconclusive: 0.631 µM [activator, full curve, poor fit]",
CCc1nc(-c2cc(S(=O)(=O)N3CCN(c4ccc(F)cc4)CC3)ccc2OC)no1,"inconclusive: 35.5 µM [inhibitor, partial curve, poor fit]",
CCOCCCNC(=O)c1c(-c2ccccc2)noc1C,"inconclusive: 0.562 µM [inhibitor, full curve, poor fit]",
CNS(=O)(=O)c1cn(CC(=O)NCc2ccc(N(C)C)cc2)cc1S(=O)(=O)NC,"inconclusive: 0.708 µM [inhibitor, single point]",
O=C(NCC1CCCO1)c1ccc2nc(N3CCCCC3)sc2c1 (centres undefined),,inactive: 8.74%
COc1cccc(/C=C/C(=C2\C(=O)N(c3ccccc3)N=C2C)c2ccc(Br)cc2)c1OC,"inconclusive: 11.2 µM [activator, single point]",
CCOC(=O)c1ccc(Nc2cnc3ccccc3n2)cc1,"inconclusive: 6.31 µM [activator, single point]",
C=C1CCC[C@]2(C)C[C@H]3OC(=O)C(CN(C)CC(OC)OC)[C@H]3CC12 (some centres undefined),,inactive: -17% [at 46.1 µM]
O=C(Nc1cccc(C(F)(F)F)c1)c1noc2c1CCc1ccccc1-2,"inconclusive: 0.501 µM [inhibitor, full curve, poor fit]",
CC1=C(C)CC(C(=O)Nc2nccs2)C(C(=O)O)C1 (centres undefined),,inactive: -9.2% [at 46.1 µM]
O=C(N/N=C/c1ccc(Cl)cc1Cl)c1cccc(N2CCCC2=O)c1,"inconclusive: 23.1 µM [inhibitor, partial curve, poor fit]",
Cc1nc2ccc(NC(=O)c3ccc(S(=O)(=O)N(C)C)cc3)cc2s1,,inactive: -0.736% [at 46.1 µM]
Cc1ccc(-n2ncc3c(SCC(=O)Nc4cc(C)on4)ncnc32)c(C)c1,"inconclusive: 2.51 µM [inhibitor, single point]",
CN(c1cccc(NC(=O)COc2ccc(Cl)cc2Cl)c1)S(C)(=O)=O,"inconclusive: 35.5 µM [inhibitor, single point]",
CCN(CC)S(=O)(=O)c1ccc(N2CCCCC2)c(C(=O)Nc2ccccc2N2CCOCC2)c1,active: 5.62 µM,
CC(=O)NCC(=O)OCC(=O)N1c2ccccc2Sc2ccccc21,"inconclusive: 5.01 µM [inhibitor, single point]",
CN(C)c1ccc(/C=N/Nc2nc3ccccc3o2)cc1,"inconclusive: 3.16 µM [inhibitor, full curve, poor fit]",

# In a second layout: results already given.
Structure (SMILES) | Potency | activity change, negative = inhibition
COc1cc2c(cc1NC(=O)CC1SC(N3CCCC3)=NC1=O)oc1ccccc12 (centres undefined) | inconclusive: 22.4 µM [inhibitor, single point] | 
CC(=O)Nc1ccc(NC(=O)C(C)OC(=O)CCCc2c[nH]c3ccccc23)cc1 (centres undefined) | inconclusive: 15.8 µM [activator, single point] | 
CN(c1ccc(C(=O)NCCSCc2ccco2)cc1)S(C)(=O)=O |  | inactive: 2.57%

# (further entries)

Structure (SMILES),Potency,"activity change, negative = inhibition"
CC(C)(C)NC(=O)NC(=O)COC(=O)Cc1c(Cl)cccc1Cl,"inconclusive: 3.55 µM [activator, single point]",
CCN(CC(=O)Nc1ccc2c(c1)OCCO2)C(=O)/C=C/c1ccc(F)cc1,"inconclusive: 10 µM [activator, partial curve]",
CCOc1ccc(N2CC(C(=O)Nc3ccc(S(=O)(=O)Nc4nccs4)cc3)CC2=O)cc1 (centres undefined),,inactive: -13.6% [at 46.1 µM]
CCC(=O)Nc1cc(-c2nn(C)c(=O)c3ccccc23)ccc1N1CCCCC1,"inconclusive: 1.58 µM [inhibitor, partial curve]",
CN(Cc1nc(-c2ccccc2)no1)C(=O)c1ccc2c(c1)OCO2,"inconclusive: 6.31 µM [activator, single point]",
Oc1c(C(Nc2nccs2)c2ccc(C(F)(F)F)cc2)ccc2cccnc12 (centres undefined),active: 4.47 µM,
c1n[nH]c(SCCCCSc2ncn[nH]2)n1,,inactive: 3.14%
COc1ccc(NC(=O)/C=C/c2ccc(OC(F)F)cc2)cn1,"inconclusive: 6.31 µM [inhibitor, full curve, poor fit]",
O=C(Nc1cccc(-c2nc3ncccc3o2)c1)c1ccc(-c2cccc(Cl)c2Cl)o1,,inactive: 6.26% [at 46.1 µM]
O=C(Nc1ccccc1)c1cc(-c2ccccc2Cl)no1,"inconclusive: 6.31 µM [activator, full curve, poor fit]",
NS(=O)(=O)c1ccc(NS(=O)(=O)c2ccc(NC(=S)Nc3ccccc3)cc2)cc1,,inactive: 15.5% [at 46.1 µM]
CCOC(=O)CN1C(=O)N(CC)C(C)=C(C(=O)OC)[C@@H]1c1ccccc1,"inconclusive: 0.0038 µM [inhibitor, full curve, poor fit]",
CCS(=O)(=O)N1Cc2ccccc2CC1C(=O)Nc1ccc(C)cc1 (centres undefined),,inactive: -19.9%
CC(Cc1cccs1)NC(=O)Nc1ccccc1 (centres undefined),,inactive: 20.3%
CCOC(=O)c1cc(C#N)c(Oc2ccccc2)nc1-c1ccccc1,,inactive: -22.2%
Nc1nc(N)c(S(=O)(=O)c2ccccc2)c(Nc2ccc(Br)cc2)n1,,inactive: -4.02% [at 46.1 µM]
CC1CC(C)CN(C(=O)CSc2nnc(CSc3ncccn3)n2C)C1 (centres undefined),"inconclusive: 14.6 µM [activator, single point]",
CC1CC(=O)NC(=O)N1Cc1ccccc1 (centres undefined),"inconclusive: 35.5 µM [activator, single point]",
CCCCOc1cccc(C(=O)N(Cc2ccco2)C2CCS(=O)(=O)C2)c1 (centres undefined),"inconclusive: 3.66 µM [inhibitor, partial curve, poor fit]",
COc1ccccc1C(=O)Nc1ccc(C(=O)c2ccccc2)cc1,"inconclusive: 35.5 µM [inhibitor, single point]",
Cc1cnc(C(=O)Nc2ccc(F)c(F)c2)cn1,,inactive: 10.5%
COC(=O)CCn1c(C)cc(C(=O)COc2ccccc2C(N)=O)c1C,"inconclusive: 6.31 µM [inhibitor, full curve, poor fit]",
